Binding data for 2 molecules are collected here from paper PMC6116569, “Activity of Vsr endonucleases encoded by Neisseria gonorrhoeae FA1090 is influenced by MutL and MutS proteins” (BMC Microbiology, 2018).

The target in experiment [1] is V.NgoAXIV endonuclease, purified (ngoAXIVV gene in pQE-30) (N. gonorrhoeae FA1090). As to the kind of experiment: pull-down; protein affinity chromatography: 250 μg V.NgoAXIII, V.NgoAXIV or MutLNgo coupled to Affi-Gel 10; 250 μg His-tagged MutLNgo or MutS applied in 25 mM Tris pH 7.5, 50 mM NaCl with 2 mM ATP and 5 mM MgCl2; washed with the same buffer, eluted with 250 mM NaCl; fractions blotted with an anti-His-Tag antibody; both purified.

Experiment [2] deals with V.NgoAXIII endonuclease, purified (ngoAXIIIV gene in pET28a(+)) (N. gonorrhoeae FA1090). The description is as above.

These are yes or no findings as the source states them, for the method shown. A result given as binding can be weak or reduced; the word gives no strength. Tags and fused reporters may be left off the sequences shown.

B1: MutS protein of N. gonorrhoeae FA1090, His-tagged, purified (plasmid pAK21) (protein, UniProt Q5F5J4 1-864)
chain: MSKSAVSPMMQQYLGIKAQHTDKLVFYRMGDFYELFLDDAVEAAKLLDITLTTRGQMDGVPIKMAGVPFHAAEQYLARLVKLGKSVAICEQVGEVGAGKGPVERKVVRIVTPGTLTDSALLEDKETNRIVAVSPDKKYIGLAWASLQSGEFKTKLTTADKLNDELARLQAAEILLPDSKNAPQLQTASGVTRLNAWQFAADAGEKLLTEYFGCQDLRGFGLDSKEHAVSIGAAGALLNYIRLTQNLMPQHLDGLSLETDSQYIGMDAATRRNLEITQTLSGKKTPTLFSILDGCATHMGSRLLALWLHHPLRNRAHIRARQEAVTALESQYEPLQCHLKSIADIERIAARIAVGNARPRDLASLRDSLFELAQIDLSATGSSLLETLKAVFPETLPVAETLKAAVMPEPSVWLKDGNVINHGFHPELDELRRIQNHGDEFLLDLEAKERERTGLSTLKVEFNRVHGFYIELSKTQAEQAPADYQRRQTLKNAERFITPELKAFEDKVLTAQDQALALEKQLFDGVLKNLRTALPQLQKAAKAAAALDVLSTFSALAKERNFVRPEFADYPVVHIENGRHPVVEQQVRHFTANHTDLDHKHRLMLLTGPNMGGKSTYMRQVALIVLLAHTGCFVPADAATIGPVDQIFTRIGASDDLASNRSTFMVEMSETAYILHHATEQSIVLMDEVGRGTSTFDGLALAHAIAEHLLQKNKSFSLFATHYFELTYLPEAHAAAVNMHLSALEQGRDIVFLHQIQPGPAGKSYGIAVAKLAGLPVRALKAAQKHLNGLENQAAANRPQLDIFSTMPSEKGDEPNVDCFVDKAEEKHFEGILAAALENLDPDSLTPREALSELYRLKDLCKSVS
On to B1, for which the binding result in experiment [1] and in experiment [2] was “no binding (tested: 250 μg MutS applied)” throughout.

B2: MutL protein of N. gonorrhoeae FA1090, His-tagged, purified (plasmid pAK20) (natural protein, UniProt Q5F8M6 1-658, looked up)
chain: MPRIAALPDHLVNQIAAGEVVERPANALKEIVENSIDAGATAVDVELEGGGIRLIRVGDNGGGIHPDDIELALHRHATSKIKTLNDLEHVASMGFRGEGLASIASVSRLTLTSRQEDSSHATQVKAEDGKLSSPTAAAHPVGTTIEAAELFFNTPARRKFLKSENTEYAHCATMLERLALAHPHIAFSLKRDGKQVFKLPAQSLHERIAAIVGDDFQTASLEIDSGNSALRLYGAIAKPTFAKGKTDKQYCFVNHRFVRDKVMLHAVKQAYRDVLHNALTPAFVLFLELPPEAVDVNVHPTKTEIRFRDSRQVHQLVFHTLNKALADTRANLTESVSNAGEVLHDITGVTPAPMPSENDGENLFDSASNHPTGNKPDTRNAFGSSGKTAPMPYQAARAPQQHSLSLRESRAAMDTYAELYKKTDDIDLELSQFEQARFGNMPSETPAHKTDTPLSDGIPSQSELPPLGFAIAQLLGIYILAQAEDSLLLIDMHAAAERVNYEKMKRQRQENGNLQSQHLLIPVTFAASHEECAALADHAETLAGFGLELSDMGGNTLAVRAAPVMLGKSDVVSLARDVLGELAQVGSSQTIASHENRILATMSCHGSIRAGRRLTLPEMNALLRDMENTPRSNQCNHGRPTWVKLTLKELDTLFLRGQ
notes: MutL of Neisseria gonorrhoeae FA1090; mutLNgo gene (1977 bp) amplified from chromosomal DNA with primers MutLfor/MutLNgoR and cloned into the NheI-HindIII sites of pET28a(+); The His-Tag at the amino terminus is encoded by the vector; also called MutLNgo; gonococcal MutL protein; source: E. coli BL21(DE3)pLys (pAK20), autoinduction, purified (Ni-NTA Agarose); not shown: His-Tag, N-terminal, kept
For B2, the binding result in experiment [1] and in experiment [2] was “binds” each time.
